Results taken from the supplement of paper PMC10849652.
This is one part of the list.

Amino acid sequences for entries named in this document (tags omitted). A change or cut given only in a name is not applied to a line headed by its entry.
UniProt Q16629: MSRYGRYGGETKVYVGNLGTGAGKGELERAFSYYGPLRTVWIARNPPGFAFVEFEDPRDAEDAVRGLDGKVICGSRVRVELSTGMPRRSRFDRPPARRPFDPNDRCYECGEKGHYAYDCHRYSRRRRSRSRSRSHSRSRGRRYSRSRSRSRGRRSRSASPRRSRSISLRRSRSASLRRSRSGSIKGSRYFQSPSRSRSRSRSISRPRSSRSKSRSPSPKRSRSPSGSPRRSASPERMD
UniProt Q16385, whole entry, looked up: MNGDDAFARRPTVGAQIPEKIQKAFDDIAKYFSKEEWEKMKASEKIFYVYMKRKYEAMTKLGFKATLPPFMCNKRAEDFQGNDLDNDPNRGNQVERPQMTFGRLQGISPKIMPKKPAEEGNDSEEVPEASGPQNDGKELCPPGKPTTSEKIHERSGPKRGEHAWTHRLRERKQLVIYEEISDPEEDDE
UniProt Q68D10: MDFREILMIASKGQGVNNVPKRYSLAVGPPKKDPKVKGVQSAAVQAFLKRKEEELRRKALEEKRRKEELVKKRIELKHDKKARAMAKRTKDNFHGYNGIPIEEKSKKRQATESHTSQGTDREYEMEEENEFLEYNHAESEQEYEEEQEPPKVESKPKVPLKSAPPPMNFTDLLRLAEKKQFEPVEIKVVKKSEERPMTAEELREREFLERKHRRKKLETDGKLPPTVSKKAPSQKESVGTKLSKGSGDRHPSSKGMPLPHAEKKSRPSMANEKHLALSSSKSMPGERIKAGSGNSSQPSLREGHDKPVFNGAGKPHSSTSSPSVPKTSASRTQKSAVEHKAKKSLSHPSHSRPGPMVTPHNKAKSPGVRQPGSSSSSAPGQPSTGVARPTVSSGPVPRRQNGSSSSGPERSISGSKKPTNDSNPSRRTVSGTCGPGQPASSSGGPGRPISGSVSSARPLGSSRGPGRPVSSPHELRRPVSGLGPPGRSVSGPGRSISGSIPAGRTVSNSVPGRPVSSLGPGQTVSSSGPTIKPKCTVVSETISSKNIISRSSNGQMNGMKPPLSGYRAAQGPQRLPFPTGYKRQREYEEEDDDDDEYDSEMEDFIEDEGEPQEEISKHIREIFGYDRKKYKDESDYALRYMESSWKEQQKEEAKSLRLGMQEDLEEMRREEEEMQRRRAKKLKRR
UniProt O95772: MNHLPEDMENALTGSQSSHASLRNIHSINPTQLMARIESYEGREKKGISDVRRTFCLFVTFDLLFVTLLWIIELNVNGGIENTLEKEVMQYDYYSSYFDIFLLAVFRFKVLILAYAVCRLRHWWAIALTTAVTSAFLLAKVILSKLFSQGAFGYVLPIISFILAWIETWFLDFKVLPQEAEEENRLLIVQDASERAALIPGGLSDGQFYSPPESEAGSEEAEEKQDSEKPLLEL
UniProt Q86XZ4: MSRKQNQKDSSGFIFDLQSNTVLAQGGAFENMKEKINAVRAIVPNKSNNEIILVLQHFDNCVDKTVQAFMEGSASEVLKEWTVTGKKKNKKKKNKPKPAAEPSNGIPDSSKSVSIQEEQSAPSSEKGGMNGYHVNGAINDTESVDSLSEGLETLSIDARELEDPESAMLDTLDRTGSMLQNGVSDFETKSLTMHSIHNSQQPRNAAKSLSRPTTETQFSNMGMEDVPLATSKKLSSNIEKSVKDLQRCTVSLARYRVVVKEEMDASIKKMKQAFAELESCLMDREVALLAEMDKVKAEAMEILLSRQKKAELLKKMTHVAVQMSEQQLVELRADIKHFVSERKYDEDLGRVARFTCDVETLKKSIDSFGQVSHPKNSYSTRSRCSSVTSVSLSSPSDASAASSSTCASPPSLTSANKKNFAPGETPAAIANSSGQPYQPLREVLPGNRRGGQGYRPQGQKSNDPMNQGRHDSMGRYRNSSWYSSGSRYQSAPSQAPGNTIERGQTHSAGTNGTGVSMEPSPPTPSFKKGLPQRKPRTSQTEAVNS
UniProt Q9NZD8: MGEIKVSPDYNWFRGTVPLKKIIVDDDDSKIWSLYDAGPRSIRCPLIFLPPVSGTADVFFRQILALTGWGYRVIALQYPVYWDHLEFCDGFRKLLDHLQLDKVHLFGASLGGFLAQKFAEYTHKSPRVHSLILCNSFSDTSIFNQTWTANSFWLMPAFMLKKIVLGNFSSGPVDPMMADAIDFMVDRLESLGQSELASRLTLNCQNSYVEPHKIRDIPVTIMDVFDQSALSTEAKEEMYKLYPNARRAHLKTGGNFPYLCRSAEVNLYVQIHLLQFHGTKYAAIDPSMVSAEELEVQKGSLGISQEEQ
UniProt O95630, whole entry, looked up: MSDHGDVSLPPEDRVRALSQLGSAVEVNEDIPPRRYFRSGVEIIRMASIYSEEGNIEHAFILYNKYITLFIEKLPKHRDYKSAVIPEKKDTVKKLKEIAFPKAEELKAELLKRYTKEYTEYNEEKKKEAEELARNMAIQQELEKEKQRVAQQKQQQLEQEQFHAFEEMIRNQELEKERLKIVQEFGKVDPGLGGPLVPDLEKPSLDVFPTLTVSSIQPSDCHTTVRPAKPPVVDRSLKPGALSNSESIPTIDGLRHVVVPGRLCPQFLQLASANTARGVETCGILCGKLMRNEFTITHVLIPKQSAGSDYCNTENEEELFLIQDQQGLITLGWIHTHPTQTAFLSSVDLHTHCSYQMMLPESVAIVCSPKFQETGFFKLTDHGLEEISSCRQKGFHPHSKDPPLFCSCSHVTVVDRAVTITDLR
UniProt Q9NP77: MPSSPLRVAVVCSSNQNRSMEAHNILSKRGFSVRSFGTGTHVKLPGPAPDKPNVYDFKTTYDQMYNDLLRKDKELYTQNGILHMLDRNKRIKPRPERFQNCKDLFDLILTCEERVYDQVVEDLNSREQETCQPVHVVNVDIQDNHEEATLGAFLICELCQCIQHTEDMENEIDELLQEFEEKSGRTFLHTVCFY
UniProt Q9BUA3: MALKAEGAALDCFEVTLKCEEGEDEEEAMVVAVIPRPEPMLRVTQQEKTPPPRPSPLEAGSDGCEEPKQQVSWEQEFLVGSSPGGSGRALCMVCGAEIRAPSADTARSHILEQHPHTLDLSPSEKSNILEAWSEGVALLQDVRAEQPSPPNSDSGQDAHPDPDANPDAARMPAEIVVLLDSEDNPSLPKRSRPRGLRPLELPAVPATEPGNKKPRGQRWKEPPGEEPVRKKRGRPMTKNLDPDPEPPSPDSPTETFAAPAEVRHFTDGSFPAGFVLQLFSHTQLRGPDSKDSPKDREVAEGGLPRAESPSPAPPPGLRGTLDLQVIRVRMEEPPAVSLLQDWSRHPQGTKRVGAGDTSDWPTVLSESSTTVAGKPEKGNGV
UniProt Q08AE8, whole entry, looked up: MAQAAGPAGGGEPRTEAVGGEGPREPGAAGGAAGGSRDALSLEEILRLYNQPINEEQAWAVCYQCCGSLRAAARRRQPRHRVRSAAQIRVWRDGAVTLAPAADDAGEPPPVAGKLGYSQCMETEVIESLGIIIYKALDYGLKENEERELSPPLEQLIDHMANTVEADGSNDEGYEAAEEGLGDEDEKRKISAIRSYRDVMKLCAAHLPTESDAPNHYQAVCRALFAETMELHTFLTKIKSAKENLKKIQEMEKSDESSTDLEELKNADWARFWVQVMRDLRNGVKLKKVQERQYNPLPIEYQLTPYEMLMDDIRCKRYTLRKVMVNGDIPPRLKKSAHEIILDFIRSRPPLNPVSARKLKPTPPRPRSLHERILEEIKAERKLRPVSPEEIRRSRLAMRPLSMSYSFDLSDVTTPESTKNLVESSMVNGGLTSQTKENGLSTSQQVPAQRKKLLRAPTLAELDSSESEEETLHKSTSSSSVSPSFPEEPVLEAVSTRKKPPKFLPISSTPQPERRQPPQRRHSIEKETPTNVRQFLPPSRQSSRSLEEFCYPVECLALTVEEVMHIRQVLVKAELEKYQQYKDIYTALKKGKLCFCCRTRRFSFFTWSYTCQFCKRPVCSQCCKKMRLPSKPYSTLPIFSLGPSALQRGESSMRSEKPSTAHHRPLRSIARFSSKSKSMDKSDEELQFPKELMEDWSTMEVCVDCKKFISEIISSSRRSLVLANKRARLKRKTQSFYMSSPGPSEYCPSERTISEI
UniProt Q11206: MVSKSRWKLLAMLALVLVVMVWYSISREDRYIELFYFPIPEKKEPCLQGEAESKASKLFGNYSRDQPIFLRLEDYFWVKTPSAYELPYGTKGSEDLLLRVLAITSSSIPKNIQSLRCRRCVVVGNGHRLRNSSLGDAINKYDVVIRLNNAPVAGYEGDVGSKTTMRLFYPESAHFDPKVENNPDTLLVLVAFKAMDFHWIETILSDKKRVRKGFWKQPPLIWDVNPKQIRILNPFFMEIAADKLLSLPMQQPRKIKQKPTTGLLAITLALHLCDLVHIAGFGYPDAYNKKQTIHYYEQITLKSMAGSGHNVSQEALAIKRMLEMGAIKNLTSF
UniProt Q8WVM7: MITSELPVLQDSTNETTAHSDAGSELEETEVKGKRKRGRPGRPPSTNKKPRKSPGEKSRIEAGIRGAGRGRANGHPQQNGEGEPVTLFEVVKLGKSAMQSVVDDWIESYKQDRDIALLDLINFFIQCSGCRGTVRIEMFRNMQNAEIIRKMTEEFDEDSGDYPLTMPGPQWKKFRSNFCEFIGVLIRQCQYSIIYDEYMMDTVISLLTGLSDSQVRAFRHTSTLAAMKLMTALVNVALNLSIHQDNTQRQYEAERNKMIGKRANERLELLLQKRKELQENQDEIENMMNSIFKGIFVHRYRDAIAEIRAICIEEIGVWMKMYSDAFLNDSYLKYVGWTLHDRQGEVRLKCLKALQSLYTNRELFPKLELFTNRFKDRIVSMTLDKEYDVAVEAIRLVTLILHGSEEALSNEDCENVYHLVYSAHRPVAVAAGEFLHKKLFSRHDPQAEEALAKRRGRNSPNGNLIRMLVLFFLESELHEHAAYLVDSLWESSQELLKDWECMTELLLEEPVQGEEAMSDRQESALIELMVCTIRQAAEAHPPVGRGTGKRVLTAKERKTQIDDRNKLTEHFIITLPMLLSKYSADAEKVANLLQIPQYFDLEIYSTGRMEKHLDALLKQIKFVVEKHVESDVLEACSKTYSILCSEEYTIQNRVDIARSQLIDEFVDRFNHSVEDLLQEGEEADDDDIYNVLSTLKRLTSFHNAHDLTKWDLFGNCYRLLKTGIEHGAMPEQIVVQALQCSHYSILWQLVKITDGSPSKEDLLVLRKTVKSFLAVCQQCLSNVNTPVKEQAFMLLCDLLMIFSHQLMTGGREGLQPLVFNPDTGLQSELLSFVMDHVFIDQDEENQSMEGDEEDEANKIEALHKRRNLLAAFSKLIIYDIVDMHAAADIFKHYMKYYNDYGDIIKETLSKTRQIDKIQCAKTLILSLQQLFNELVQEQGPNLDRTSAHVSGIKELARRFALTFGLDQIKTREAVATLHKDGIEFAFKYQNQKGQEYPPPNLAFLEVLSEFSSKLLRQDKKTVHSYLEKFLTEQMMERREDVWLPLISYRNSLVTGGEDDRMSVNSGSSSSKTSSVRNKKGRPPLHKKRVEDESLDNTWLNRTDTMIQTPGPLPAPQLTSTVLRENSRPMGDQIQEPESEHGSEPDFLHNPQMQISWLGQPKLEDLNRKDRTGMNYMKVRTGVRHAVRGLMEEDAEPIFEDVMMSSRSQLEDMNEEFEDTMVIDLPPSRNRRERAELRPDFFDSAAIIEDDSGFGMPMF
UniProt Q9NSC7: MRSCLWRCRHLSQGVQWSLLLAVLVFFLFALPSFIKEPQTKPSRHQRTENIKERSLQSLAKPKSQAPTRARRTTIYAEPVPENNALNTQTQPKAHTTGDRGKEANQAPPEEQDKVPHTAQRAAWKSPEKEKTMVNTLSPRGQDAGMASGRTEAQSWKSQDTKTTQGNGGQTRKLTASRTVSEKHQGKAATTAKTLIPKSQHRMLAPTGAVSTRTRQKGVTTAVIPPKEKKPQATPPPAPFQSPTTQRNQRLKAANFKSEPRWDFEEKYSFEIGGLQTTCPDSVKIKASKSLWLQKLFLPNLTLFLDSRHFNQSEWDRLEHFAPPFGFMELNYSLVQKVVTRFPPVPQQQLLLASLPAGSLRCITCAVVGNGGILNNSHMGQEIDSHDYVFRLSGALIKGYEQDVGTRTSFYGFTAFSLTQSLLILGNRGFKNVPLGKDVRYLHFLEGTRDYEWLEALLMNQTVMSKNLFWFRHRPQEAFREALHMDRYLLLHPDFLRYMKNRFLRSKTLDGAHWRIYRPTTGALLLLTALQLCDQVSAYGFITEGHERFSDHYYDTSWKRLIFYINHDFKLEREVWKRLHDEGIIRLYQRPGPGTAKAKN
UniProt P49675, whole entry, looked up: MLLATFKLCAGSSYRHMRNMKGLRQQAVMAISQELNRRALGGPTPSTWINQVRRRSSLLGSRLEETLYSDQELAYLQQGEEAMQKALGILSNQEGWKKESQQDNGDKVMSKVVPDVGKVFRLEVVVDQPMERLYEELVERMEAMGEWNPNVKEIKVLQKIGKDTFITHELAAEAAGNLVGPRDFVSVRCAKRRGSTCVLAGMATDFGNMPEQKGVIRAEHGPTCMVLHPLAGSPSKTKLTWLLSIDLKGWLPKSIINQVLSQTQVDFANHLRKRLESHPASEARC
UniProt P49458: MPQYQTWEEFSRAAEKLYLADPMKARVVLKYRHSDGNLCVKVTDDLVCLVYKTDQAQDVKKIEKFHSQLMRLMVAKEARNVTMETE

The targets below were run with Cn1cc(-c2ccc3c(c2)CCN3C(=O)Cc2cccc(C(F)(F)F)c2)c2c(N)ncnc21 (assay: log2 fold change, soluble protein after heating vs DMSO (PISA); higher = thermal stabilisation; K562 lysate, 10 uM; active = over 0.2 and 3.5 SD of the protein, either way, in both replicates (recomputed)).
Procedure, shortened: (§1)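 Following dounce homogenisation of K562 pellets in PBS pH 7.4 with 1 mM MgCl2, crude extract at 1 mg/mL protein was incubated for 30 min with 10 μM compound. Aliquots were then heated for 3 min over 48°C-58°C and pooled, NP-40 was added to 0.5% at 4°C, and soluble protein was recovered as the supernatant at 21,000xg for 90 min. Channel-sum-equalised TMTpro 16plex LC-MS/MS quantified this protein. Each value, from duplicates, is a log-two fold change in thermal stability relative to solvent controls.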

Row | Target | log2 fold change
1 | STEAP3 isoform 2 (UniProt Q658P3) | inactive: -0.024
2 | STAT3 isoform 2 (UniProt P40763) | inactive: 0.006
3 | SPOUT1 (UniProt Q5T280) | inactive: -0.045
4 | SRSF7 (UniProt Q16629) | inactive: -0.006
5 | SPTAN1 (UniProt Q13813) | inactive: 0
6 | SSX2 (UniProt Q16385) | inactive: 0.003
7 | SPTY2D1 (UniProt Q68D10) | inactive: 0.153
8 | STARD3NL (UniProt O95772) | inactive: 0.079
9 | SPATS2 (UniProt Q86XZ4) | inactive: -0.03
10 | SPG21 (UniProt Q9NZD8) | inactive: 0.053
11 | STARD9 (UniProt Q9P2P6) | inactive: -0.108
12 | STAMBP (UniProt O95630) | inactive: 0.008
13 | SSU72 (UniProt Q9NP77) | inactive: 0.037
14 | SPINDOC (UniProt Q9BUA3) | inactive: 0.003
15 | SPIRE1 (UniProt Q08AE8) | inactive: 0.025
16 | SPATA33 isoform 2 (UniProt Q96N06) | inactive: 0.108
17 | ST3GAL4 isoform 4 (UniProt Q11206) | inactive: 0.043
18 | STAG1 (UniProt Q8WVM7) | inactive: -0.027
19 | ST6GALNAC1 (UniProt Q9NSC7) | inactive: -0.046
20 | SPG11 (UniProt Q96JI7) | inactive: 0.025
21 | STAP1 (UniProt Q9ULZ2) | inactive: 0.021
22 | STAR (UniProt P49675) | inactive: 0.011
23 | SPTBN1 isoform 3 (UniProt Q01082) | inactive: 0.036
24 | SRP9 (UniProt P49458) | inactive: 0.006

Each target was assayed with Cn1cc(CNCC2CCN(c3ncc(C(=O)NO)cn3)CC2)c2ccccc21 [quisinostat] in the same assay as above.
Procedure, shortened: as §1

Row | Target | log2 fold change
25 | STEAP3 isoform 2 (UniProt Q658P3) | inactive: -0.05
26 | STAT3 isoform 2 (UniProt P40763) | inactive: 0
27 | STAT1 isoform 2 (UniProt P42224) | inactive: 0.07
28 | SRSF7 (UniProt Q16629) | inactive: 0.047
29 | SREK1IP1 (UniProt Q8N9Q2) | inactive: 0.08
30 | SPTAN1 (UniProt Q13813) | inactive: -0.023
31 | SSX2 (UniProt Q16385) | inactive: 0.07
32 | SPTY2D1 (UniProt Q68D10) | inactive: -0.122
33 | STARD3NL (UniProt O95772) | inactive: -0.055
34 | SPATS2 (UniProt Q86XZ4) | inactive: 0.144
35 | SPG21 (UniProt Q9NZD8) | inactive: 0.036
36 | STARD9 (UniProt Q9P2P6) | inactive: -0.092
37 | STAMBP (UniProt O95630) | inactive: 0.035
38 | SSU72 (UniProt Q9NP77) | inactive: -0.002
39 | SPINDOC (UniProt Q9BUA3) | inactive: 0.088
40 | SPIRE1 (UniProt Q08AE8) | inactive: -0.186
41 | SPINT1 (UniProt O43278) | inactive: 0.029
42 | SSBP4 (UniProt Q9BWG4) | inactive: -0.045
43 | ST3GAL4 isoform 4 (UniProt Q11206) | inactive: 0.091
44 | STAG1 (UniProt Q8WVM7) | inactive: 0.072
45 | SS18L1 (UniProt O75177) | inactive: -0.073
46 | ST6GALNAC1 (UniProt Q9NSC7) | inactive: 0.015
47 | SPATS2L isoform 2 (UniProt Q9NUQ6) | inactive: -0.198
48 | SPG11 (UniProt Q96JI7) | inactive: -0.048
49 | STAU1 isoform 3 (UniProt O95793) | inactive: -0.11
50 | STAR (UniProt P49675) | inactive: -0.041
51 | SPTBN1 isoform 3 (UniProt Q01082) | inactive: -0.02
52 | SRP9 (UniProt P49458) | inactive: 0.026

What follows are targets tested with Cn1cncc1[C@@](N)(c1ccc(Cl)cc1)c1ccc2c(c1)c(-c1cccc(Cl)c1)cc(=O)n2C [tipifarnib] in the same assay as above.
Procedure, shortened: as §1

Row | Target | log2 fold change
53 | STEAP3 isoform 2 (UniProt Q658P3) | inactive: 0.007
54 | STAT3 isoform 2 (UniProt P40763) | inactive: 0.008
55 | SPOUT1 (UniProt Q5T280) | inactive: -0.145
56 | STAT1 isoform 2 (UniProt P42224) | inactive: -0.038
57 | SRSF7 (UniProt Q16629) | inactive: 0.016
58 | SREK1IP1 (UniProt Q8N9Q2) | inactive: 0.044
59 | SPTAN1 (UniProt Q13813) | inactive: 0.018
60 | SSX2 (UniProt Q16385) | inactive: 0.032
61 | SPTY2D1 (UniProt Q68D10) | inactive: -0.109
62 | STARD3NL (UniProt O95772) | inactive: 0.117
63 | SPATS2 (UniProt Q86XZ4) | inactive: 0.013
64 | SPG21 (UniProt Q9NZD8) | inactive: -0.033
65 | STARD9 (UniProt Q9P2P6) | inactive: 0.061
66 | STAMBP (UniProt O95630) | inactive: -0.033
67 | SSU72 (UniProt Q9NP77) | inactive: 0.02
68 | SPINDOC (UniProt Q9BUA3) | inactive: -0.08
69 | SPIRE1 (UniProt Q08AE8) | inactive: 0.055

Row | Target | log2 fold change
70 | SPINT1 (UniProt O43278) | inactive: 0.036
71 | SSBP4 (UniProt Q9BWG4) | inactive: -0.241
72 | SPATA33 isoform 2 (UniProt Q96N06) | inactive: -0.116
73 | ST3GAL4 isoform 4 (UniProt Q11206) | inactive: 0.034
74 | STAG1 (UniProt Q8WVM7) | inactive: -0.022
75 | SPRED2 (UniProt Q7Z698) | inactive: 0.089
76 | SS18L1 (UniProt O75177) | inactive: 0.066
77 | ST6GALNAC1 (UniProt Q9NSC7) | inactive: -0.123
78 | SPATS2L isoform 2 (UniProt Q9NUQ6) | inactive: -0.069
79 | SPATA7 (UniProt Q9P0W8) | inactive: 0.099
80 | SPG11 (UniProt Q96JI7) | inactive: -0.007
81 | STAU1 isoform 3 (UniProt O95793) | inactive: 0.032
82 | STAP1 (UniProt Q9ULZ2) | inactive: 0.099
83 | STAR (UniProt P49675) | inactive: 0.203
84 | SPTBN1 isoform 3 (UniProt Q01082) | inactive: 0.049
85 | SRP9 (UniProt P49458) | inactive: 0.026
